The target in test [1] is mouse PCSK9-his6 (Sino Biologicals, Cat# 50251-M08H) (mouse) (UniProt Q80W65). Description: ELISA, fusion protein immobilized, mouse PCSK9-his6 in solution, HRP anti-his6 detection. In general terms: ELISA stands for enzyme-linked immunosorbent assay.
The target is the same in test [2]. Description: ELISA, fusion protein immobilized at 2.0, 1.0 and 0.5 ug/ml, mouse PCSK9-his6 10 ug/ml to 10 ng/ml, HRP anti-his6 detection.

Sequences of proteins named here, by UniProt entry; tags and fusion partners are left off. A change or cut given only in a name is not applied to a line headed by its entry. Residues count along the entry.
UniProt Q80W65, residues 35-694: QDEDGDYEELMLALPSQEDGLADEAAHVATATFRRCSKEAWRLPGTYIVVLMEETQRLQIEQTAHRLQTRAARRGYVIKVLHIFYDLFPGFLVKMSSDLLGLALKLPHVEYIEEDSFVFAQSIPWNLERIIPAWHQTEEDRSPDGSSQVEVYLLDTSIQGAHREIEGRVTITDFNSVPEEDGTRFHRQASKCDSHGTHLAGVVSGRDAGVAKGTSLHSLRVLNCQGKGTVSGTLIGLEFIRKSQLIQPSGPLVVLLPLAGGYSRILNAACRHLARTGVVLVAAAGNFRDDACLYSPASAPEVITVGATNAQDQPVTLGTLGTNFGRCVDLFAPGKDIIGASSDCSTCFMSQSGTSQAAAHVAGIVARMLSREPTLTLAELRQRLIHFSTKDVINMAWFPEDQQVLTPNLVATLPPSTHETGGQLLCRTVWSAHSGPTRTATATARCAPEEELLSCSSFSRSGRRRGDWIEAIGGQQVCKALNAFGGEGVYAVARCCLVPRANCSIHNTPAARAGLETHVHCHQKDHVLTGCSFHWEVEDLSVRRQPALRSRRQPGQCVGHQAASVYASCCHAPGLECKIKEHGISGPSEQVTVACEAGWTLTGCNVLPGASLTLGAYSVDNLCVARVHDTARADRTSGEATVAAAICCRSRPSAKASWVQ

These are yes or no findings as the source states them, for the method shown. Some binding calls cover weakened binding; strength is not graded here.

As to “hLDLR EGF-AB WT-SSSH-mthIgG1 (from UniProt P01130 314-397) (Fc fusion)”, the binding entry in test [1] and in test [2] was “binds” each time.

The values are drawn from patent publication US20140120091A1 (University of Washington, published 2014).
